Values are relative to the signal before dosing, not to a vehicle control; the signal also falls without drug.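 Fibroblast labels name human fibroblasts: mostly primary ones from tissues such as uterus (C12385, HUF), lung (H6013), bone (Hs27A), adrenal (HADF) and skin (WS1), plus mammary HMF and breast cancer-associated Hs343T. The cancer cells are basal-like or mesenchymal-like triple-negative breast cancer lines. The paper calls a changed response a hit when it shifts by more than 3x the replicate standard deviation. The tissue of the other fibroblasts is not given here.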
Test system: MDAMB436
Experiment: relative JC-1 red fluorescence (viability) vs pre-drug, coculture with fibroblast (fraction); higher = more viable cancer cells
Description: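 JC-1 labelled TNBC cells cocultured 1:1 (1,500 cells each) with CellTrace Violet stained primary or stromal fibroblasts in 384-well plates in FluoroBrite medium, treated with one of 42 anticancer drugs at 0.1, 1, 10 or 100 uM. JC-1 red fluorescence (mitochondrial integrity in cancer cells only) was read by plate reader every 8 h for 72 h. Values are normalised to each well's pre-drug value. The stock of one drug was tenfold lower, so its dose labels may be too high.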

CCC1=C[C@@H]2CN(C1)Cc1c([nH]c3ccccc13)[C@@](C(=O)OC)(c1cc3c(cc1OC)N(C)[C@H]1[C@@](O)(C(=O)OC)[C@H](OC(C)=O)[C@]4(CC)C=CCN5CC[C@]31[C@@H]54)C2 [Vinorelbine]
relative JC-1 red fluorescence
Settings	8 h	16 h	24 h	32 h	40 h	48 h	56 h	64 h	72 h
10 µM, coculture fibroblast: C12385	0.815	0.778	0.769	0.709	0.671	0.6461	0.606	0.5732	0.552
10 µM, coculture fibroblast: H6013	0.844	0.815	0.819	0.82	0.791	0.799	0.7458	0.7096	0.651
10 µM, coculture fibroblast: H6019	0.799	0.792	0.787	0.736	0.716	0.691	0.656	0.6169	0.593
10 µM, coculture fibroblast: H6076	0.762	0.7257	0.726	0.657	0.622	0.58	0.546	0.518	0.495
10 µM, coculture fibroblast: H6231	0.857	0.816	0.781	0.7048	0.648	0.594	0.551	0.504	0.473
10 µM, coculture fibroblast: HADF	0.898	0.917	0.923	0.929	0.909	0.909	0.842	0.805	0.746
10 µM, coculture fibroblast: HCFa	0.832	0.842	0.858	0.852	0.846	0.862	0.798	0.791	0.731
10 µM, coculture fibroblast: HCPF	0.844	0.792	0.774	0.698	0.631	0.579	0.52	0.485	0.44694
10 µM, coculture fibroblast: HHSteC	0.829	0.818	0.7933	0.7752	0.7613	0.757	0.69	0.662	0.613
10 µM, coculture fibroblast: HMF	0.845	0.813	0.795	0.75	0.7002	0.6405	0.5889	0.529	0.495
10 µM, coculture fibroblast: HPFa	0.871	0.839	0.84	0.798	0.799	0.795	0.736	0.718	0.667
10 µM, coculture fibroblast: HUF	0.873	0.829	0.827	0.768	0.714	0.663	0.629	0.6	0.587
10 µM, coculture fibroblast: Hs5	0.82	0.751	0.751	0.685	0.626	0.5667	0.542	0.483	0.46
10 µM, coculture fibroblast: Hs27A	0.895	0.893	0.7809	0.733	0.743	0.756	0.773	0.662	0.758
10 µM, coculture fibroblast: Hs343T	0.825	0.832	0.825	0.793	0.752	0.707	0.66431	0.6247	0.593
10 µM, coculture fibroblast: WS1	0.832	0.794	0.776	0.719	0.702	0.67	0.634	0.59	0.561
100 µM, coculture fibroblast: C12385	0.782	0.768	0.672	0.453	0.341	0.295	0.25	0.216	0.195
100 µM, coculture fibroblast: H6013	0.879	0.777	0.6449	0.519	0.416	0.398	0.328	0.289	0.239
100 µM, coculture fibroblast: H6019	0.86	0.822	0.742	0.595	0.504	0.441	0.388	0.345	0.306
100 µM, coculture fibroblast: H6076	0.948	0.8393	0.737	0.59	0.429	0.324	0.254	0.208	0.167
100 µM, coculture fibroblast: H6231	0.947	0.869	0.762	0.597	0.429	0.326	0.26	0.216	0.171
100 µM, coculture fibroblast: HADF	0.893	0.77	0.778	0.625	0.541	0.533	0.446	0.418	0.356
100 µM, coculture fibroblast: HCFa	0.833	0.817	0.727	0.555	0.459	0.444	0.354	0.331	0.261
100 µM, coculture fibroblast: HCPF	0.714	0.733	0.94	0.836	0.636	0.487	0.351	0.287	0.225
100 µM, coculture fibroblast: HHSteC	0.799	0.758	0.623	0.478	0.4155	0.3985	0.326	0.29	0.234
100 µM, coculture fibroblast: HMF	0.956	0.865	0.722	0.589	0.44	0.31	0.22	0.151	0.109
100 µM, coculture fibroblast: HPFa	0.888	0.832	0.862	0.723	0.756	0.735	0.629	0.594	0.514
100 µM, coculture fibroblast: HUF	0.867	0.826	0.661	0.465	0.359	0.305	0.274	0.238	0.218
100 µM, coculture fibroblast: Hs5	0.941	0.911	0.819	0.636	0.492	0.364	0.286	0.231	0.181
100 µM, coculture fibroblast: Hs27A	0.82	0.762	0.631	0.502	0.459	0.486	0.373	0.341	0.268
100 µM, coculture fibroblast: Hs343T	0.943	0.891	0.806	0.664	0.516	0.399	0.301	0.249	0.207
100 µM, coculture fibroblast: WS1	0.8054	0.759	0.669	0.52	0.432	0.387	0.338	0.298	0.27

Reference: the supplement of paper PMC6078165
